# Data as given in PubChem BioAssay AID624297 (National Center for Advancing Translational Sciences (NCATS), 2012).
# The whole screen tested about 340,000 compounds, of which about 6,200 (1.8%) were called active. The inconclusive results got no clear call from the source; some entries with a clear call stand among them for comparison. The call rests on the fitted dose curve; in most records, active means well fitted activation curve with a large enough effect; inconclusive means small, poorly fitted or top-dose-only effect; inactive means no such curve, though single readings can be large or run the other way. Potencies beside an inconclusive call are fits to weak or partial responses and may not hold up.
# Test: A quantitative high throughput screen for small molecules that induce DNA re-replication in SW480 colon adenocarcinoma cells. Further: nearly all actives have a fitted effect of over 55% in size.
# Details: Hoechst DNA content imaging, 48 h; series mostly up to 46.1 µM
# How it was run: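 Treated cells incubate 48 hr (37 C, 5% CO2), are stained 40 min with Hoechst, and nuclear fluorescence is enumerated; a rise in nuclei with high DNA signal marks re-replication.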
# Potency means the concentration at half of the fitted maximal effect.
row,Compound,Potency
1,CCCCc1ccc(N2C(=NC(=O)C3CCCO3)SC3CS(=O)(=O)CC32)cc1 (stereo not given),inactive
2,Cc1ccc2nc(N3C(=O)C(O)=C(C(=O)c4ccc(C)o4)C3c3ccc(O)cc3)sc2c1 (stereo not given),inactive
3,Cc1cc(C)cc(NC(=O)COC(=O)Cn2cnc3c2c(=O)n(C)c(=O)n3C)c1,inactive
4,COc1cccc(NC(=S)NC(=O)c2cncc(Br)c2)c1,active: 18.4 µM
5,CC(C)OCCCNC(=O)c1ccccc1NC(=O)C1=CSCCO1,"inconclusive: 0.092 µM [activator, full curve, poor fit]"
6,CCOC(=O)c1c(C)[nH]c(C(=O)OCC(O)=C(C#N)c2nc3ccccc3[nH]2)c1C,"inconclusive: 20.6 µM [activator, single point]"
7,COc1cc(C(=O)Oc2cccc(/C=N/NC(=O)c3cc(C)[nH]n3)c2)cc(OC)c1OC,inactive
8,CCOC(=O)c1sc2nc(N3CCOCC3)c3c(c2c1N)CC(C)(C)N(C)C3,"inconclusive: 3.98 µM [activator, single point]"
9,Cc1ccc(-c2nn(CCC#N)cc2C=C(C#N)C#N)cc1,"inconclusive: 29.1 µM [activator, single point]"
10,NC(=O)CSc1nc(C23CC4CC(CC(C4)C2)C3)nc2ccccc12,inactive
11,c1ccc(-n2ncc3c2ncn2nnnc32)cc1,"inconclusive: 16.4 µM [activator, partial curve, poor fit]"
12,CCn1c(O)c(C=NCc2cccs2)c(=O)n(CC)c1=S,inactive
13,Cc1cccc(OCCNC(=O)c2ccc(Cl)c(S(=O)(=O)NCc3cccnc3)c2)c1,"inconclusive: 20.6 µM [activator, partial curve, poor fit]"
14,O=C(Nc1nc2c(F)cccc2s1)c1ccc([N+](=O)[O-])o1,"inconclusive: 29.1 µM [activator, single point]"
15,CCC(CO)Oc1cc(NCc2ccc(Cl)cc2)c2ncn(C(C)C)c2c1 (stereo not given),"inconclusive: 29.1 µM [activator, partial curve, poor fit]"
16,O=C(N/N=C/c1ccccc1C(F)(F)F)c1ccc(O)cc1,inactive
17,CCCCOc1ccc(C2C(C(=O)c3ccc(C)o3)=C(O)C(=O)N2CC2CCCO2)cc1 (stereo not given),"inconclusive: 32.6 µM [activator, partial curve, poor fit]"
18,COP(=O)(OC)c1nc(-c2cccc3ccccc23)oc1N1CCOCC1,inactive
19,CCCCCCN=C(C)c1ccccc1O,inactive
20,C#CCOCCOCCOCCNc1nc(N2CCN(C(=O)CCCCCCCCCCNC(=O)[C@H]([C@@H](C)CC)n3cc(CCCCCN)nn3)CC2)nc(N2CCN(C(=O)CCCCCCCCCCNC(=O)[C@@H]([C@H](C)O)n3cc(C)nn3)CC2)n1,"inconclusive: 2.59 µM [activator, partial curve, poor fit]"
21,Cc1ccccc1NC(=O)c1cccc(Cn2cc(Br)c([N+](=O)[O-])n2)c1,inactive
22,CCCn1nnnc1NCc1ccc(N(CC)CC)cc1,inactive
23,Cn1nccc1/C=C(/C#N)S(=O)(=O)c1ccccc1,"inconclusive: 29.1 µM [activator, single point]"

# A different layout for some results above:
row	Compound	Potency
6	CCOC(=O)c1c(C)[nH]c(C(=O)OCC(O)=C(C#N)c2nc3ccccc3[nH]2)c1C	inconclusive: 20.6 µM [activator, single point]
10	NC(=O)CSc1nc(C23CC4CC(CC(C4)C2)C3)nc2ccccc12	inactive
15	CCC(CO)Oc1cc(NCc2ccc(Cl)cc2)c2ncn(C(C)C)c2c1 (stereo not given)	inconclusive: 29.1 µM [activator, partial curve, poor fit]

# The list continues:

row,Compound,Potency
1,CNC[C@H](CC1CCCCC1)NC[C@H](CO)NCCc1cccc(C(F)(F)F)c1,"inconclusive: 2.59 µM [activator, partial curve, poor fit]"
2,CC1CN(S(=O)(=O)c2ccc(C(=O)OCc3ccc(C#N)cc3)cc2)CC(C)O1 (stereo not given),inactive
3,O=C(Nc1cccc([N+](=O)[O-])c1)c1cc2ccccc2cc1O,"inconclusive: 6.51 µM [activator, partial curve, poor fit]"
4,CCc1nn(C(C)C(=O)N2CCc3ccccc3C2)c(=O)c2cc3occc3n12 (stereo not given),"inconclusive: 29.1 µM [activator, single point]"
5,Cc1ccc2c(CN(C)Cc3cccc(Cl)c3)cc(=O)oc2c1C,inactive
6,COc1ccc(C(=O)NCc2nnc(SCC(=O)N3CCCC3)o2)cc1OC,inactive
7,COc1cc([N+](=O)[O-])ccc1NC(=O)NCCCN1CCCC1=O,inactive
8,COc1cc(OC)cc(C(=O)N/N=C(\C)CC(=O)Nc2ccccn2)c1,"inconclusive: 29.1 µM [activator, single point]"
9,CCOC(=O)/C=C/COc1ccccc1[N+](=O)[O-],"inconclusive: 32.6 µM [activator, partial curve, poor fit]"
10,COCCNC(=O)c1cc(-c2ccc(-c3ccccc3)cc2)nc2ccccc12,"inconclusive: 20.6 µM [activator, single point]"
11,COC(=O)c1ccc(CSc2nnc(CNC(=O)COc3ccc(Cl)cc3)o2)o1,inactive
12,COc1ccc2[nH]c3c(c2c1)CCN1C(=O)N([C@@H](C)C(=O)NCCc2ccc(F)cc2)C(=O)[C@]31C,"inconclusive: 29.1 µM [activator, single point]"
13,Cc1ccc(C)c(N2CCN(C(=O)CCc3nc(-c4ccc(Br)cc4)no3)CC2)c1,inactive
14,CCN(CC(=O)Nc1ccc2c(c1)OCCO2)C(=O)c1cccc(OCC(C)C)c1,"inconclusive: 18.4 µM [activator, single point]"
15,CCCN(Cc1cc2cc(C)ccc2[nH]c1=O)C(=O)c1cccc([N+](=O)[O-])c1,active: 2.31 µM
16,Cc1cc(C)n(CCNc2nc3nonc3nc2N2CCCCC2)n1,inactive
17,O=C1CC(NS(=O)(=O)c2ccccc2F)CN1c1ccc2c(c1)OCCO2 (stereo not given),inactive
18,O=C(Nc1cccc(-n2cccn2)c1)C1CCCN(Cc2ccccc2F)C1 (stereo not given),"inconclusive: 18.4 µM [activator, partial curve, poor fit]"
19,COc1ccc(C(C)(C)C)cc1NC(=O)c1ccccc1-n1cnnn1,"inconclusive: 0.291 µM [activator, full curve, poor fit]"
20,CCC(C)Oc1ccc(/C=C/c2[nH]c(=O)[nH]c(=O)c2[N+](=O)[O-])cc1OC (stereo not given),active: 20.6 µM
21,O=C(/C(=C\c1ccccc1)c1nc2ccccc2[nH]1)c1ccc(Cl)cc1,"inconclusive: 20.6 µM [activator, single point]"
22,COc1cc(/C=C/C(=O)OCC(=O)NCCc2ccccc2)ccc1OC(F)F,"inconclusive: 32.6 µM [activator, single point]"
